In PubChem BioAssay AID504467 (National Center for Advancing Translational Sciences (NCATS), 2011):
In all, about 330,000 compounds went through this assay and about 7,700 (2.3%) were called active. The inconclusive results got no clear call from the source; some entries with a clear call stand among them for comparison. Calls come from the whole dose curve; as a rule, active = well fitted inhibition curve with a large enough effect; inconclusive = small, poorly fitted or top-dose-only effect, or effect the other way; inactive = flat fitted curve, though single readings scatter. Potencies beside an inconclusive call are fits to weak or partial responses and may not hold up.

Assay: qHTS screen for small molecules that inhibit ELG1-dependent DNA repair in human embryonic kidney (HEK293T) cells expressing luciferase-tagged ELG1; note: nearly all actives have a fitted effect of over 55% in size
Details: HEK293T ELG1-luciferase reporter, luminescence, 16 h, DNA damage induced by 5-fluorouridine; series mostly up to 46.1 µM
Outline: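 Luminescence from the luciferase reporter, measured 30 min after ONE-Glo reagent at room temperature, was the read-out. Beforehand, 2,000 cells per well were exposed for 16 hr at 37 °C to 5-fluorouridine together with compound or vehicle.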
Potency is the fitted concentration of half-maximal effect.

SMILES	Potency
CC(C)c1nc2ccc(NC(=O)C34CC5CC(CC(C5)C3)C4)cc2[nH]1	inconclusive: 20.6 µM [activator, single point]
Nc1ccc(C(=O)c2cccs2)cc1	inconclusive: 20.6 µM [activator, single point]
CN(C(=O)COC(=O)c1ccccc1C(=O)N1CCN(c2ccccc2)CC1)c1ccccc1	inactive
CC(C)OCCCNC(=O)c1c(N)n(/N=C/c2ccccn2)c2nc3ccccc3nc12	active: 7.31 µM
CN(C)c1ccc(N2C(=O)CC(c3ccccc3)CC2=O)cc1	inconclusive: 18.3 µM [activator, partial curve, poor fit]
Cc1ccc(S(=O)(=O)N2CCN(C(=O)N3CCOCC3)CC2)cc1C	inconclusive: 12.6 µM [activator, partial curve, poor fit]
CCOC(=O)C1=C(N)OC2=C(C(=O)CCC2)C1c1ccccc1OC (stereo not given)	inactive
CC(=O)Nc1ccc(C(=O)OCc2ccccc2Br)cc1	inconclusive: 11.6 µM [activator, single point]
COc1ccc(CCNS(=O)(=O)CCNC(=O)c2ccc3c(c2)OCO3)cc1	inactive
Cc1nc(NCCc2ccccc2)c2oc3ccccc3c2n1	inconclusive: 14.6 µM [inhibitor, partial curve]
Cc1ccc2ncnc(Oc3ncccc3[N+](=O)[O-])c2c1	inconclusive: 7.3 µM [activator, partial curve, poor fit]
Cc1cccc(NC(=O)N(C)Cc2cccs2)c1	inconclusive: 20.6 µM [activator, partial curve]
Cc1ccc2cc3c(N)c(C(=O)N4CCOCC4)sc3nc2c1	inconclusive: 1.46 µM [activator, partial curve]
CCOC(=O)c1cnc(SCC(=O)c2ccccc2)nc1N	inconclusive: 7.31 µM [activator, partial curve]
CCOc1cccc(/C=N/NC(=O)c2cc(-c3cccn3C)n[nH]2)c1O	inconclusive: 5.17 µM [inhibitor, single point]
COc1ccc2[nH]c3c(=O)n(CCCCC(=O)N4CCCC4)c(=S)[nH]c3c2c1	inconclusive: 7.31 µM [inhibitor, partial curve, poor fit]
CCN(CC(=O)NCc1ccc(Cl)cc1)C(=O)Cc1ccccc1[N+](=O)[O-]	inconclusive: 3.26 µM [activator, full curve]
S=C1NC[C@H](CC2CCCCC2)N1CCCCC1CCCCC1	inactive
COc1cc(-c2nn3c(C4CCCCC4)nnc3s2)cc(OC)c1OC	active: 5.8 µM
COc1ccc(N2CCN(CC(=O)Nc3nnc(-c4ccccc4)s3)CC2)cc1	inactive
O/N=C/c1ccn(-c2ccc(Br)cc2)c1	inconclusive: 18.3 µM [activator, single point]
CCCCn1c(NC(=O)CC)c(C#N)c2nc3ccccc3nc21	inactive
O=C(CSc1nc2c(c(=O)n1-c1ccccc1)SCC2)N1CCN(c2ccccc2)CC1	active: 23.1 µM
C=CCn1c(SCC(=O)Nc2c(C)n(C)n(-c3ccccc3)c2=O)nc2sc(C)c(C)c2c1=O	inconclusive: 13 µM [inhibitor, partial curve, poor fit]

SMILES	Potency
Cc1cc2oc(=O)cc(CN3CCN(Cc4ccccc4)CC3)c2cc1C	inactive
O=C(CCN1CCOCC1)NCc1ccccc1	inconclusive: 12.6 µM [inhibitor, partial curve]
O=C(OCc1nnc(-c2cccs2)o1)c1cccnc1Cl	inconclusive: 29.1 µM [activator, single point]
CC(=O)c1ccc(NC(=O)CN2CCC(C(=O)c3ccc4c(c3)OCCO4)CC2)cc1	inconclusive: 20.6 µM [inhibitor, single point]
CC(NC(=O)C(C)N1c2cccc3cccc(c23)S1(=O)=O)c1ccccc1 (stereo not given)	inconclusive: 18.3 µM [inhibitor, single point]
Cc1c(C(=O)N2CCOCC2)sc(NC(=O)c2ccc([N+](=O)[O-])cc2)c1C#N	inconclusive: 23.1 µM [inhibitor, single point]
Cc1ccccc1N1CCN(C2CCCN(C(=O)c3ccc(Cl)s3)C2)CC1 (stereo not given)	inconclusive: 32.6 µM [inhibitor, partial curve, poor fit]
CN1CCN(c2ccc(CNC(=O)c3cc4ccccc4o3)cc2)CC1	inactive
O=C(COC(=O)CNC(=O)c1ccc(Cl)cc1Cl)NC1CCCCCCC1	inactive
CC(C)=CC(=O)Nc1nnc(-c2cccnc2)s1	inconclusive: 14.6 µM [activator, partial curve]
O=C(/C=C/c1ccnc2ccccc12)c1cccs1	inconclusive: 6.51 µM [activator, partial curve]
Cc1ccc(-c2n[nH]c(=S)c3ccccc23)cc1	inactive
CC(C)CCNC1=NCCCCC1	inconclusive: 5.01 µM [inhibitor, full curve]
C[C@H](NC(=O)c1ccc(Cl)c(S(=O)(=O)N2CCOCC2)c1)c1nc2ccccc2[nH]1	inconclusive: 32.6 µM [inhibitor, single point]
Cc1ccccc1NC(NC(=O)c1cccs1)C(Cl)(Cl)Cl (stereo not given)	inactive
C/C(Cn1nnc([N+](=O)[O-])n1)=N\NC(=O)c1ccc(C)cc1	inconclusive: 18.4 µM [activator, single point]
CCOC(=O)c1cnc(SCc2cccc(C)c2)nc1N	inconclusive: 29.1 µM [activator, single point]
Cc1ccc2c(c1)[C@H]1[C@H](CO2)[C@H](c2ccccc2)[C@]2(C)C(=O)N(Cc3ccco3)CC(=O)N12	inconclusive: 0.92 µM [activator, full curve, poor fit]
CN(CC(=O)Nc1ccccc1Cl)C(=O)CN1C(=O)C2CC=CCC2C1=O (stereo not given)	inactive
COc1ccccc1NS(=O)(=O)c1ccc(C)c(C(=O)NCC2(N(C)C)CCCCC2)c1	inactive
COc1cccc(-c2cc3nc(-c4ccccc4)cc(N4CCCC(O)C4)n3n2)c1 (stereo not given)	active: 16.4 µM
Cc1oc(-c2ccc(Cl)cc2)nc1CN1CCCC(C(=O)NCc2ccco2)C1 (stereo not given)	inconclusive: 29.1 µM [inhibitor, single point]
CC1CCN(C(=S)NC(=O)C2CCCCC2)CC1	inconclusive: 29.1 µM [activator, single point]
CC(C)(C)NC(=O)COC(=O)c1ccccc1OCC(=O)Nc1ccc(Br)cc1	inconclusive: 29.1 µM [activator, single point]

SMILES	Potency
CCCCN=C(C)c1c(O)c2ccccc2oc1=O	inconclusive: 14.6 µM [activator, partial curve]
CCCCNC(=O)c1cc2c(=O)n3cccc(C)c3nc2n1C	inactive
O=C(CCN1C(=O)c2ccccc2S1(=O)=O)Nc1ccc(F)c(F)c1F	inactive
Cc1ccc(CC(=O)Nc2ccc(C(=O)N3CCOCC3)cc2)cc1	inactive
CCc1cc2c(=O)n(Cc3ccco3)c(SCC(=O)N3CCCc4ccccc43)nc2s1	inconclusive: 25.9 µM [inhibitor, single point]
O=C(NCCCN1CCOCC1)c1onc(CSc2nc3ccccc3[nH]2)c1C(=O)NCCCN1CCOCC1	inconclusive: 6.51 µM [inhibitor, single point]
COc1ccccc1OCCn1cc(/C=C(\C#N)C(=O)NCc2cccs2)c2ccccc21	inconclusive: 8.2 µM [inhibitor, partial curve]
O=C(Nc1ccc(N2CCOCC2)cc1)c1cccc2c(Br)cccc12	inactive
Cc1cccc(/C=C/C(=O)c2ccc([N+](=O)[O-])o2)c1	inconclusive: 3.16 µM [inhibitor, single point]
CN(C)S(=O)(=O)c1ccc(N2CCOCC2)nc1	inactive
COc1ccc(CN2CCN(S(=O)(=O)c3ccc(NC(C)=O)cc3)CC2)c(OC)c1OC	inconclusive: 20.6 µM [inhibitor, partial curve]
O=C(CN1C(=O)NC2(CCCC2)C1=O)c1ccc(Cl)s1	inconclusive: 32.6 µM [activator, partial curve, poor fit]
CCCCN(CCCC)c1cn[nH]c(=O)c1Cl	inconclusive: 20.6 µM [inhibitor, partial curve, poor fit]
Cc1cc(C(=O)Nc2sc3c(c2C#N)CCCC3)no1	inconclusive: 2.59 µM [activator, partial curve]
O=C(Nc1cccnc1)c1cn(-c2ccccc2)nc1-c1cccs1	inconclusive: 29.1 µM [inhibitor, single point]
CN(CC(=O)Nc1ccc(F)cc1)CC(=O)Nc1ccc(Cl)c(S(=O)(=O)N2CCOCC2)c1	active: 18.3 µM
O=C1CC(N2CCN(c3ccc(S(=O)(=O)N4CCOCC4)cc3)CC2)C(=O)N1Cc1ccccc1 (stereo not given)	inconclusive: 29.1 µM [inhibitor, single point]
Cc1ccc(C)c(OCc2cc(C(=O)N(C)Cc3ccccn3)no2)c1	inconclusive: 18.3 µM [activator, single point]
O=C(CN1C(=O)CCOc2ccccc21)Nc1ccc(Cl)c(S(=O)(=O)N2CCOCC2)c1	inactive
Cc1cccc(NS(=O)(=O)c2cccc(C(=O)NCC(c3ccco3)N3CCCCC3)c2)c1 (stereo not given)	inactive
Brc1ccccc1-c1nnc(SCc2nc3ccccc3s2)o1	inconclusive: 14.6 µM [activator, partial curve]
CCOC(=O)C1CCN(C(c2cc3c(C)ccc(C)c3[nH]c2=O)c2nnnn2C2CCCCC2)CC1 (stereo not given)	inconclusive: 16.4 µM [inhibitor, single point]

Looked up by compound from the entries so far, 3 records:
SMILES	Potency
CN(CC(=O)Nc1ccc(F)cc1)CC(=O)Nc1ccc(Cl)c(S(=O)(=O)N2CCOCC2)c1	active: 18.3 µM
O=C(CN1C(=O)CCOc2ccccc21)Nc1ccc(Cl)c(S(=O)(=O)N2CCOCC2)c1	inactive
Cc1cccc(NS(=O)(=O)c2cccc(C(=O)NCC(c3ccco3)N3CCCCC3)c2)c1 (stereo not given)	inactive
